Reference: article doi:10.1101/396861

Biological target: T1, AtHYL1N (Arabidopsis thaliana) (UniProt O04492)
T1 sequence (looked up): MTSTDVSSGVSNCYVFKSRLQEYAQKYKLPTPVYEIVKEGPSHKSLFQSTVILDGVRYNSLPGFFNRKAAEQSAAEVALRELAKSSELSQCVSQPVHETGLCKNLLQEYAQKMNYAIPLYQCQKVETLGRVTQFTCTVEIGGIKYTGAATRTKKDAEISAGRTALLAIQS
Assay: EMSA
Details: poly-dIdC; residues 1-170

“GCCCTGCAACCGAGACCACGCTTATGGAGCCTGGGACGTGGTCTCGGTTG [50-nt DNA hairpin (dsDNA hairpin loop)]”: binds more weakly.

The comparison behind a weaker result is the experiment's own reference, which may not be listed here. Tags and fusion partners may be left off the protein sequences shown.
